Earlier results as cited in US20110256565A1, “METHODS FOR DIAGNOSIS AND TREATMENT OF NEURODEGENERATIVE DISEASES OR DISORDERS” (priority 2008, published 2011).
At least one structure is not confirmed: it was looked up by name or label, or the drawing left a doubt.

Amino acid sequences for entries named in this document (tags omitted).
UniProt P49841, whole entry, species assumed: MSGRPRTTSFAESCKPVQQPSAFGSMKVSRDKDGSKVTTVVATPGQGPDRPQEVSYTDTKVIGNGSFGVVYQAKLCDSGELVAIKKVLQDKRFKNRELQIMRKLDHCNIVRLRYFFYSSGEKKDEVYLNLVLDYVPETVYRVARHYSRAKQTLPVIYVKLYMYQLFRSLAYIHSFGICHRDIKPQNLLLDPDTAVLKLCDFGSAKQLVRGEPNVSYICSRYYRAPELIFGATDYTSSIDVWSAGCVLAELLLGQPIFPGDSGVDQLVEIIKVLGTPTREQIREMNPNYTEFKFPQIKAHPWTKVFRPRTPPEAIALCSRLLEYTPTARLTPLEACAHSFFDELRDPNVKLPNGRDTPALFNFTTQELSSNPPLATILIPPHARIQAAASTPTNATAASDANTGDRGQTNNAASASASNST

How the values were obtained:
[1] = target: GSK3B (Homo sapiens, UniProt P49841); conditions: cited from earlier work
[2] = system: neuroblastoma cells; conditions: cited from earlier work

[Li] [lithium]
Effect on GSK3B activity [1]: inhibit GSK3B activity | Effect on neurite outgrowth [2]: inhibit neurite outgrowth
